{"source": "patent US20060211763A1", "about": "“Treatment with Statin and Omega-3 Fatty Acids and a Combination Product Thereof” (priority 2005, published 2006)", "origin": "cited, not measured here", "key": {"[1]": {"test_system": "patients with mixed hyperlipidemia", "conditions": "40 mg/day pravastatin and/or 6 g/day fish oil; 6 weeks single agent, then 12 weeks combined"}, "[2]": {"test_system": "patients with combined hyperlipidemia", "conditions": "40 mg/day fluvastatin two months, then additionally 3 g/day fish oil two months"}}, "note": "At least one structure is not confirmed: it was looked up by name or label, or the drawing left a doubt."}
{"smiles": "CC[C@H](C)C(=O)O[C@H]1C[C@H](O)C=C2C=C[C@H](C)[C@H](CC[C@@H](O)C[C@@H](O)CC(=O)O)[C@H]21", "note": "[pravastatin]", "values": [{"measurement": "LDL-C levels", "setting": "[1]", "result": "significantly reduced"}]}
{"smiles": "CC(C)n1c(/C=C/C(O)CC(O)CC(=O)O)c(-c2ccc(F)cc2)c2ccccc21", "note": "(stereo not shown) [fluvastatin]", "values": [{"measurement": "LDL-C levels", "setting": "[2]", "result": "significantly reduce"}, {"measurement": "Triglyceride levels", "setting": "[2]", "result": "significantly reduce"}, {"measurement": "HDL-C levels", "setting": "[2]; combination vs monotherapy not statistically significant", "result": "significantly increase"}]}
